# Experimental data reported in the supplement of paper PMC10735217.
# Some of the results follow. This data set is noisy: repeats of one test often differ as much as different tests do.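 Human kidney-derived cells stably carry a construct in which eight TEAD-binding elements drive luciferase, measured by luminescence in a drug-repurposing library screen. A hit is any compound whose signal exceeds the plate mean by more than five robust Z scores.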
# System: HEK293A TEAD-LUC reporter
# Assay: TEAD-luciferase reporter activity (YAP activation), robust Z score vs plate; higher = stronger YAP/TEAD activation
# Conditions: 24 h
Compound,TEAD-luciferase reporter activity (compound concentration: 200 nM),TEAD-luciferase reporter activity (compound concentration: 2 uM),TEAD-luciferase reporter activity (compound concentration: 10 uM)
Cn1c(=O)ccc2ccccc21 [1-methyl-2(1H)-quinoli],inactive: 0.813,inactive: 0.485,inactive: -0.927
CCOc1cc2ncc(C#N)c(Nc3ccc(OCc4ccccn4)c(Cl)c3)c2cc1NC(=O)/C=C/[C@H]1CCCN1C [Pyrotinib],inactive: 0.177,–,inactive: 0.0845
CS(=O)(=O)c1ccc(/C(=C2\CCOC2=O)c2ccc(Br)cc2)cc1,inactive: -0.993,inactive: -0.0639,inactive: -1.08
COc1ccccc1N1CCN(CCCC(O)c2ccc(F)cc2)CC1 (stereo not given),inactive: -1.48,inactive: 0.57,inactive: 1.26
C=C[C@]1(C)C[C@@H](OC(=O)CSCCN(CC)CC)[C@]2(C)[C@H](C)CC[C@]3(CCC(=O)[C@H]32)[C@@H](C)[C@@H]1O [Tiamulin],inactive: 0.102,inactive: -0.279,inactive: 3.5
CCCCCCCCCCCCCCCCCC(=O)OCC(CO)OC(=O)CCCCCCCCCCCCCCCCC (stereo not given),inactive: 0.0554,inactive: -0.628,inactive: 0.748
CCCN(CCC)C(=O)C(Cc1ccc(OCCCN2CCN(C)CC2)cc1)NC(=O)c1ccc(C#N)cc1 (stereo not given),inactive: 0.00244,inactive: -1.13,inactive: 0.604
CC(CN(C)C)Oc1ccc(-c2nn(CC(=O)O)c3ncccc23)cc1 (stereo not given),inactive: -0.726,–,inactive: -0.318
C[C@@]1(O)[C@H](O)[C@@H](CO)O[C@H]1n1cnc2c(=O)[nH]c(N)nc21 [2'-C-Methylguanosine],inactive: 3.95,inactive: -0.991,inactive: 2.17
O=C(Cc1c[nH]c2ccccc12)NCCc1c[nH]c2ccccc12,inactive: 1.4,inactive: 0.798,inactive: -1.71
CS(=O)(=O)OCCCNCCCOS(C)(=O)=O [improsulfan tosilate],inactive: -1.46,inactive: 2.12,inactive: -0.663
CC(C)C[C@H](NC(=O)c1ccc(N2CCC(NC[C@H](O)c3ccc(O)c(NS(C)(=O)=O)c3)CC2)cc1)C(=O)O,inactive: -0.756,inactive: -0.997,inactive: 0.0307
Nc1nccc(Oc2ccc(NC(=O)c3c[nH]cc(-c4ccc(F)cc4)c3=O)cc2F)c1Cl,inactive: -0.689,inactive: 0.353,inactive: 0.732
Nc1cccc2c1C(=O)N(C1CCC(=O)NC1=O)C2=O (stereo not given) [pomalidomide],inactive: -0.648,inactive: -1.53,inactive: -1.1
CCC(=O)C(CCCCCCOc1ccc(OC)cc1Cl)C(=O)CC [arildone],inactive: -0.572,inactive: -0.0303,inactive: -0.677
CN(C)C(=O)Cc1nn(-c2ccccc2)c(=O)c2c1c1ccc(Cl)cc1n2C,inactive: -0.516,inactive: 0.734,inactive: 2.41
CCC(=O)NC1Cc2cccc(C(=O)OCC(C)C)c2OB1O (stereo not given),inactive: 0.704,–,inactive: 1.82
Cc1cc([N+](=O)[O-])c(NS(=O)(=O)c2cccc(C(=O)O)c2)cc1-c1cccnc1 [Alofanib],inactive: -1.11,inactive: -1.56,inactive: 1.46
"CN(C)CC(=O)Nc1ccc2[nH]c(=O)c3ccccc3c2c1 [PARP Inhibitor VIII, PJ34]",inactive: -1.81,–,inactive: 1.54
CN(C)CC(=O)Nc1ccc2[nH]c(=O)c3ccccc3c2c1 [Parsepril],–,inactive: 0.932,–
C[C@H]1[C@H]2CC[C@H]3[C@@H]4CC=C5C[C@@H](N(C)C)CC[C@]5(C)[C@H]4CC[C@]23CN1C,active: 5.3,inactive: -0.367,inactive: -1.51
CNn1cc(C(=O)O)c(=O)c2cc(F)c(N3CCN(C)CC3)cc21,inactive: -0.745,inactive: 3.59,inactive: 0.234
O=C(NCCS)c1cccc(C(=O)NCCS)c1 [Emeramide],inactive: 0.232,inactive: -1.5,inactive: -0.235
CC(C)NC(=O)N1CCC2(CC1)CN(C(=O)CCCN)Cc1ccccc1O2,inactive: -1.58,–,inactive: -2.09

# Retrieved one by one from above:
Compound,TEAD-luciferase reporter activity (compound concentration: 200 nM),TEAD-luciferase reporter activity (compound concentration: 2 uM),TEAD-luciferase reporter activity (compound concentration: 10 uM)
CN(C)CC(=O)Nc1ccc2[nH]c(=O)c3ccccc3c2c1 [Parsepril],–,inactive: 0.932,–
CC(C)NC(=O)N1CCC2(CC1)CN(C(=O)CCCN)Cc1ccccc1O2,inactive: -1.58,–,inactive: -2.09
